Experimental data published in the supplement of paper PMC11732987, “Enantioselective OTUD7B fragment discovery through chemoproteomics screening and high-throughput optimisation” (Communications Chemistry, 2025).
The other results are listed elsewhere or left out. The data scatter; read single values as rough.

Protein sequences, listed by entry. Tags and fused reporters are not part of them. Lines headed by an entry give the natural chain unless they say otherwise; changes in a name come on top. Residues count along the entry.
UniProt P29597: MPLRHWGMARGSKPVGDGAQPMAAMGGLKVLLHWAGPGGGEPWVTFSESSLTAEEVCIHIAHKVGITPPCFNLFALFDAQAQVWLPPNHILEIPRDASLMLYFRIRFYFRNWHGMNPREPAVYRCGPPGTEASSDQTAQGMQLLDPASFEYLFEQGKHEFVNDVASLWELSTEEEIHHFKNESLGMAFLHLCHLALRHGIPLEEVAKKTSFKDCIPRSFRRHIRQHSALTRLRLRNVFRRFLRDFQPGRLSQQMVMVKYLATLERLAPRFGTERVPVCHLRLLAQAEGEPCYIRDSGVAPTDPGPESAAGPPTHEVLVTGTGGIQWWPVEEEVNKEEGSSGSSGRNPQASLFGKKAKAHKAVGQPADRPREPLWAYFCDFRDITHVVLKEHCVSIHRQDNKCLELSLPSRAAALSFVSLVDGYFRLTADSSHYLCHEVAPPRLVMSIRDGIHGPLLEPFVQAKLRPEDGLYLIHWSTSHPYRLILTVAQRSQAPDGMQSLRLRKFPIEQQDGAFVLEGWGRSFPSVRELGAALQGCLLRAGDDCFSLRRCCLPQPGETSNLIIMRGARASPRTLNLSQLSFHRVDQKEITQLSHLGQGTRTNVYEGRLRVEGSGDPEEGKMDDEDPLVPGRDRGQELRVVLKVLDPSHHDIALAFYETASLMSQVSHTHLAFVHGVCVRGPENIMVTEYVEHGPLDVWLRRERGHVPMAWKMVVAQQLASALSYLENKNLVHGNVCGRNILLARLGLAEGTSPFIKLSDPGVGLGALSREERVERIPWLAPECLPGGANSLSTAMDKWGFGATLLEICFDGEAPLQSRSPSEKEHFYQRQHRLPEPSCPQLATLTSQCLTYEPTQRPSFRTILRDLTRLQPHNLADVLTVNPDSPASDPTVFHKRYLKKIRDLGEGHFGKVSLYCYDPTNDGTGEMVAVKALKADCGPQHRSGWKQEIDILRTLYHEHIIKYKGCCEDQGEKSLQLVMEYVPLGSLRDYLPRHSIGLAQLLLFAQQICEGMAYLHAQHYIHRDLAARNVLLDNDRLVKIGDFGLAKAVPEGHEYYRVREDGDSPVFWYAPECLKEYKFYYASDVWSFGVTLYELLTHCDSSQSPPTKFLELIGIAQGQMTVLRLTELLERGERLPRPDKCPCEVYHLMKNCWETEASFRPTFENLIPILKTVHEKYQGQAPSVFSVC
UniProt Q9UHF7, 160-185: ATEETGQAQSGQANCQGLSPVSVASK
UniProt Q9Y4A5, whole entry, looked up: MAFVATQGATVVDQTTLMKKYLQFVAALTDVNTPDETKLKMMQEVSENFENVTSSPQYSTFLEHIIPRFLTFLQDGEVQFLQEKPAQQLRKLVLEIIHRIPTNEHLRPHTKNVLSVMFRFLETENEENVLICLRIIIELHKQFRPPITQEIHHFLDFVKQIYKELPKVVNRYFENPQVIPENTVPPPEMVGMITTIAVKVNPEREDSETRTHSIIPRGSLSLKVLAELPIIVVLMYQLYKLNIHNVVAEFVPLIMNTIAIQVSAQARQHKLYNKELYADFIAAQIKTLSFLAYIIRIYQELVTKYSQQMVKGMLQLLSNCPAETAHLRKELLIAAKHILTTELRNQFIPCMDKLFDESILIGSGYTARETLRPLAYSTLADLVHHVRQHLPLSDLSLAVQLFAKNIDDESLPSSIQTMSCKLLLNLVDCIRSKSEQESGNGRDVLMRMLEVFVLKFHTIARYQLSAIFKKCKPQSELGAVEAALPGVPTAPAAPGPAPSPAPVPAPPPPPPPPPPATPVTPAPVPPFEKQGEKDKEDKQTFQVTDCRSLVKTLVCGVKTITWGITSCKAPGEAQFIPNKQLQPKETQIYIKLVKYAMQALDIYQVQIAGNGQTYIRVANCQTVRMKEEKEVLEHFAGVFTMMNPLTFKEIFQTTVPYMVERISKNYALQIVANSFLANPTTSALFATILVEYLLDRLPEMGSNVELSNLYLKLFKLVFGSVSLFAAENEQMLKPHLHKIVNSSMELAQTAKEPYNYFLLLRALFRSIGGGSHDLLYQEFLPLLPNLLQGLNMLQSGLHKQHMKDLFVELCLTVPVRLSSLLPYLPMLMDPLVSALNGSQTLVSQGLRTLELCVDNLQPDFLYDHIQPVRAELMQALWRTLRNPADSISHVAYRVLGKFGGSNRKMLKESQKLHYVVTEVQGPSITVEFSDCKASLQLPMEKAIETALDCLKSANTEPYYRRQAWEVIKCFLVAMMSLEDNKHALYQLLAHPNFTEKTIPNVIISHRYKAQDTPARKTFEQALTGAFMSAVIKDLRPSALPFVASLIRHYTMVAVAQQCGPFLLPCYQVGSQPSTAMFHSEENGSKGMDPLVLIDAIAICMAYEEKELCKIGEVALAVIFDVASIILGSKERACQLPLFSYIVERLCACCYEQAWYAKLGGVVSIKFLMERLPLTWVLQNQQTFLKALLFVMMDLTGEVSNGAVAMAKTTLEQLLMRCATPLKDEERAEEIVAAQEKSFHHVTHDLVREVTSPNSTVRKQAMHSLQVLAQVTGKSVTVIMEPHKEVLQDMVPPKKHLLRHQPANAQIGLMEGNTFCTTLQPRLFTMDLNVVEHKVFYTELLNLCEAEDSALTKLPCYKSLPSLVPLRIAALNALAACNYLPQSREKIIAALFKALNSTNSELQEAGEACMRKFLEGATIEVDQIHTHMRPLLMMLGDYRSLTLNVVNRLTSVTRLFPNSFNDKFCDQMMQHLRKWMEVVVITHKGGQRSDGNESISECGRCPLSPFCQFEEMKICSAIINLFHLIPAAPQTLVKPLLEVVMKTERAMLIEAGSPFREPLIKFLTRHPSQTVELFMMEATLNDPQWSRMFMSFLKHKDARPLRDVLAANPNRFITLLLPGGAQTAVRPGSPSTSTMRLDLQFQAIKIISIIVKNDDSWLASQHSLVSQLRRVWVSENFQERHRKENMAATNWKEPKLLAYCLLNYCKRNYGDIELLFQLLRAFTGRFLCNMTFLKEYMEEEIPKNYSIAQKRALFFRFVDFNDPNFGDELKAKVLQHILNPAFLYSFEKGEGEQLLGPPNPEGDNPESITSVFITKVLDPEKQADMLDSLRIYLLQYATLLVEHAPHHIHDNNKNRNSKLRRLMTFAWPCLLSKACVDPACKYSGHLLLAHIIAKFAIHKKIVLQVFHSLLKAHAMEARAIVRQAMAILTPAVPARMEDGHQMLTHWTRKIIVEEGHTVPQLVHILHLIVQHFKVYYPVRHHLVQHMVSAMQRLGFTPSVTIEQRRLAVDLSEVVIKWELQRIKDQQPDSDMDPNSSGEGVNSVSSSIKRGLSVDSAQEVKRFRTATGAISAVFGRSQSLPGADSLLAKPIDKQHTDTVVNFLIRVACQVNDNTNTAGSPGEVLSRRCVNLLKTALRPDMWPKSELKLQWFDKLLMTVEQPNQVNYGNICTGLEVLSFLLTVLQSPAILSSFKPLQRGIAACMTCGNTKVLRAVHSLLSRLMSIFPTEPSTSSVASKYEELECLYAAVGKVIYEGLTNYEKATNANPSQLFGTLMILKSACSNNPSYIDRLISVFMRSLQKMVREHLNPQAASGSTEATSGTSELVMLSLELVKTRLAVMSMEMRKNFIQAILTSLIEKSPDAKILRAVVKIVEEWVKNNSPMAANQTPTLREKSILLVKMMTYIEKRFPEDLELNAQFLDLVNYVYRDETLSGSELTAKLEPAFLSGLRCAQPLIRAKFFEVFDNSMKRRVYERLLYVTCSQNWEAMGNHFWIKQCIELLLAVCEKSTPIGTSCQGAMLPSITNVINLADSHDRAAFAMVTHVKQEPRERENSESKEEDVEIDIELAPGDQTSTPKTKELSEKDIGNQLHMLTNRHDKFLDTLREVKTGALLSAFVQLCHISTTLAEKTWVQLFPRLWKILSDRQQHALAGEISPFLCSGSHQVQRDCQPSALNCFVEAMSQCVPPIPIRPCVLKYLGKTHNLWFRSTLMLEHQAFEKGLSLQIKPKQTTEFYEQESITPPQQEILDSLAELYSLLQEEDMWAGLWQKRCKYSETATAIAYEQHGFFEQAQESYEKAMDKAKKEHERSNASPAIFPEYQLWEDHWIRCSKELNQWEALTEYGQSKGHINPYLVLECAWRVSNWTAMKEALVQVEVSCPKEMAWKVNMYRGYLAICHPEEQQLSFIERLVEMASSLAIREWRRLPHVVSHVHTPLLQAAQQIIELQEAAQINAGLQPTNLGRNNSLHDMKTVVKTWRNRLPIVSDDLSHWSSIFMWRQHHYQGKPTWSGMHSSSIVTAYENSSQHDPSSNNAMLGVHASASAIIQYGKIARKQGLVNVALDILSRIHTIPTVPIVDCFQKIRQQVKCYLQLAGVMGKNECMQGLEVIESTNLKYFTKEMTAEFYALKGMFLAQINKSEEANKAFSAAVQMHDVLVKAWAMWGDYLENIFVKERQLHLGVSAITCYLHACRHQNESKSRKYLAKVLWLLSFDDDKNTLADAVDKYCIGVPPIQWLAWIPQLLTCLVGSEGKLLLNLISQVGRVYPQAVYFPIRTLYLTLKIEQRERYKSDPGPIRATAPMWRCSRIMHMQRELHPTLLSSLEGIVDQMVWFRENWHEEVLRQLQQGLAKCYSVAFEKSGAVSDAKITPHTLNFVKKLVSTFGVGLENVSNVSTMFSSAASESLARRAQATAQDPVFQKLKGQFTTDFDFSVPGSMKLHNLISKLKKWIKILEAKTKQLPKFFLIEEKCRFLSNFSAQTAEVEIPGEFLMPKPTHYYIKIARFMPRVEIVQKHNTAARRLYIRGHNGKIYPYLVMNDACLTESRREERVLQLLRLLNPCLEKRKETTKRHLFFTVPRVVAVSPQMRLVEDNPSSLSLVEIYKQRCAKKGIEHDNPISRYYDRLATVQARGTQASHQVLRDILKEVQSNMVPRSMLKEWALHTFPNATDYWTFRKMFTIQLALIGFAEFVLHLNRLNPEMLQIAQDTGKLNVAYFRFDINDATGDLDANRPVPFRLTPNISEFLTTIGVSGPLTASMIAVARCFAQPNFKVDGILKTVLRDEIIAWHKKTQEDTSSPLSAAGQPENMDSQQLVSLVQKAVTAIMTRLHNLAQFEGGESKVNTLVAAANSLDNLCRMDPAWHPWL
UniProt Q8IWV7, 855-877: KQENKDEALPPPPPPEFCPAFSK
UniProt Q8IWV7, 992-1016: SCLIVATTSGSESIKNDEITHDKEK
UniProt P62253, 86-110: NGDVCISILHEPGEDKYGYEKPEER
UniProt Q9UNY4, 549-575: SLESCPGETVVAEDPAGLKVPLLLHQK
UniProt Q8N584: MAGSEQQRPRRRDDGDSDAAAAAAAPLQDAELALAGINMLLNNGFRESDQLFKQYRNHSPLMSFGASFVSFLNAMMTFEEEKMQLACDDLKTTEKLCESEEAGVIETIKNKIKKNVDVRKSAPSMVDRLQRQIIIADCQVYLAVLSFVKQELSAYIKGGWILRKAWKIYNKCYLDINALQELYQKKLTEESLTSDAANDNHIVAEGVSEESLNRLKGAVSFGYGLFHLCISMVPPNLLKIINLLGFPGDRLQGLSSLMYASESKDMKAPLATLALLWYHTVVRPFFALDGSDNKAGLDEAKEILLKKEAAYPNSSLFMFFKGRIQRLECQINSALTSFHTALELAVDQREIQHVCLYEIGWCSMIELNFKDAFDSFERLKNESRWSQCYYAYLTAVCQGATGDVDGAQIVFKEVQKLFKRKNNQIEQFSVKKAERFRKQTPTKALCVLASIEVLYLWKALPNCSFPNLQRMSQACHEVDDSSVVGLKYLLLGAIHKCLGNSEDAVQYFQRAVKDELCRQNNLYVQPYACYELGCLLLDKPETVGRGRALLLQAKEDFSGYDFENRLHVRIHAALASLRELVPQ
UniProt P51965: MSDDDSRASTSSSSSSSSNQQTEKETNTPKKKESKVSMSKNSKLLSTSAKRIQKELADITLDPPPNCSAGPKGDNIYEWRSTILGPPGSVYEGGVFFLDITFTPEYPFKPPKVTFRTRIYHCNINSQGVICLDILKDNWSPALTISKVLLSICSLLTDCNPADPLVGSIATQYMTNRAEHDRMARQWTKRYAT
UniProt Q86VQ6, whole entry, looked up: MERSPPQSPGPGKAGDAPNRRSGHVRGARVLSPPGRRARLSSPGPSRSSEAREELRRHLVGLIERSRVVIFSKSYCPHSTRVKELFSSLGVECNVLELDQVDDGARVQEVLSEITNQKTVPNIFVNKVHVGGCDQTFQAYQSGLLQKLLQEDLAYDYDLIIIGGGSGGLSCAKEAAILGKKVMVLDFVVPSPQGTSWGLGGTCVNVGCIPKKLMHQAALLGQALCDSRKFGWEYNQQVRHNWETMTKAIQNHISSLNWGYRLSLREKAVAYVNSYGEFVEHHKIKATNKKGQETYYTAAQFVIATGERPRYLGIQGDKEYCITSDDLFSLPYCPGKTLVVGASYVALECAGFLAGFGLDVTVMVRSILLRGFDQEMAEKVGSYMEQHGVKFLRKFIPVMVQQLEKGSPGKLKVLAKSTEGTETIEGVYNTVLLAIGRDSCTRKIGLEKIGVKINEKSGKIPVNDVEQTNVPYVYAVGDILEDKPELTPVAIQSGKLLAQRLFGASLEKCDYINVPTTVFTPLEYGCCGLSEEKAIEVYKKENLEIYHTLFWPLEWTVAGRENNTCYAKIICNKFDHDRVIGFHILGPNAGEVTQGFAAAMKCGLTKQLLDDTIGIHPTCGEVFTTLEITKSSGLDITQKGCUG

What was measured:
[1] = compound: ClCC(=O)N[C@@H]1CCCc2ccccc12; assay: log2 mean competition ratio of IA-DTB cysteine labelling (DMSO/compound) (log2 ratio); higher = stronger cysteine engagement by compound; settings: treatment time: 4 h, cell line lysate: HEK293T
Experimental: (§1)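 IA-DTB competitive cysteine chemoproteomics in HEK293T RIPA lysate. Lysates were treated with compound 29 or 30 at 50 or 200 µM for 4 h, then IA-DTB (500 µM, 1 h), trypsin-digested, NeutrAvidin-enriched and analysed by diaPASEF. Competition ratio = intensity DMSO / intensity compound (n=4 treated, n=64 DMSO); binding: mean log2 CR ≥ 1 and p ≤ 0.05 plus QC filters. Target is the cysteine site.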

[2] = compound: ClCC(=O)N[C@H]1CCCc2ccccc12; assay: as above; settings: treatment time: 4 h, cell line lysate: HEK293T
Experimental: as §1

Row | Target | log2 mean competition ratio ([1]; 50 µM) | log2 mean competition ratio ([1]; 200 µM) | log2 mean competition ratio ([2]; 50 µM) | log2 mean competition ratio ([2]; 200 µM)
1 | TYK2 C536 (UniProt P29597) | 0.36 | 0.138 | -0.161 | 0.147
2 | TRPS1 C174 (UniProt Q9UHF7) | -0.207 | -0.468 | -0.0263 | -0.289
3 | TSC2 C65 (UniProt P49815) | 0.162 | -0.0365 | -0.356 | 0.0564
4 | TUT7 C649 (UniProt Q5VYS8) | 0.521 | 0.108 | -0.342 | -0.0121
5 | TUBB4B C303 (UniProt P68371) | -0.026 | -0.394 | 0.408 | -0.182
6 | TUBGCP3 C762 (UniProt Q96CW5) | 0.295 | 0.0594 | 0.0968 | -0.156
7 | TTC38 C53 (UniProt Q5R3I4) | -0.000362 | -0.24 | -0.105 | -0.261
8 | TRMU C222 (UniProt O75648) | -0.0997 | 0.00948 | -0.182 | 0.0441
9 | UBE4B C534 (UniProt O95155) | -0.00408 | -0.241 | -0.229 | -0.0661
10 | UBA2 C173 | – | – | 1.09 | 0.0826
11 | TYW3 C49 (UniProt Q6IPR3) | 0.457 | 0.0359 | 0.573 | -0.0886
12 | TSEN54 C277 (UniProt Q7Z6J9) | – | – | -0.096 | 0.275
13 | UBAP2 C208 | – | – | 0.6 | 0.218
14 | TRRAP C2279 (UniProt Q9Y4A5) | – | – | -0.166 | -0.233
15 | TTC38 C367 (UniProt Q5R3I4) | – | – | 0.0125 | -0.284
16 | UBR4 C2222 (UniProt Q5T4S7) | – | – | -0.137 | 0.141
17 | TTC27 C188 (UniProt Q6P3X3) | 0.364 | 0.104 | -0.0234 | 0.152
18 | UBR1 C872 (UniProt Q8IWV7) | 0.0248 | 0.143 | -0.273 | 0.414
19 | UBE2M C47 | – | – | -0.29 | -0.207
20 | TTI1 C351 (UniProt O43156) | – | – | -0.0164 | -0.0758
21 | UBE2G1 C90 (UniProt P62253) | 0.262 | -0.0827 | -0.321 | -0.177

Row | Target | log2 mean competition ratio ([1]; 50 µM) | log2 mean competition ratio ([1]; 200 µM) | log2 mean competition ratio ([2]; 50 µM) | log2 mean competition ratio ([2]; 200 µM)
22 | TRRAP C3758 (UniProt Q9Y4A5) | 0.0255 | -0.295 | 0.00816 | -0.275
23 | TTC1 C28 (UniProt Q99614) | – | – | 0.178 | -0.0512
24 | TTF2 C553 (UniProt Q9UNY4) | – | – | -0.23 | -0.195
25 | TTC39C C87 (UniProt Q8N584) | 0.105 | -0.277 | 0.701 | -0.307
26 | TTC14 C634 (UniProt Q96N46) | -0.261 | 0.276 | -0.25 | 0.204
27 | TTK C269 (UniProt P33981) | – | – | 0.0586 | 0.615
28 | TTC33 C55 (UniProt Q6PID6) | – | – | -0.0287 | 0.00188
29 | TROAP C647 (UniProt Q12815) | -0.281 | 0.213 | -0.223 | 0.0331
30 | TTC1 C8 (UniProt Q99614) | -0.103 | -0.357 | 0.127 | -0.0601
31 | UBR4 C1900 (UniProt Q5T4S7) | – | – | 0.0423 | 0.0426
32 | TUFM C290 (UniProt P49411) | – | – | -0.138 | -0.0711
33 | TSTD2 C324 (UniProt Q5T7W7) | – | – | -0.244 | 0.126
34 | TRMT13 C185 (UniProt Q9NUP7) | – | – | -0.000983 | -0.073
35 | UBA1 C179 (UniProt P22314) | -0.16 | -0.119 | -0.128 | -0.0935
36 | UBE2Z C243 (UniProt Q9H832) | – | – | 0.303 | -0.349
37 | UBR1 C993 (UniProt Q8IWV7) | – | – | -0.168 | -0.363
38 | TUBB3 C354 (UniProt Q13509) | -0.0143 | -0.157 | -0.164 | 0.237
39 | TUT4 C825 (UniProt Q5TAX3) | – | – | 0.134 | 0.126
40 | TTC21B C937 (UniProt Q7Z4L5) | – | – | 0.0886 | 0.138
41 | TTLL12 C98 | -0.151 | -0.0629 | -0.189 | -0.0505
42 | TSNAX C257 (UniProt Q99598) | 0.0938 | 0.0652 | 0.0737 | 0.0852

2 records drawn at random from those above, as already listed:
Row | Target | log2 mean competition ratio ([1]; 50 µM) | log2 mean competition ratio ([1]; 200 µM) | log2 mean competition ratio ([2]; 50 µM) | log2 mean competition ratio ([2]; 200 µM)
35 | UBA1 C179 (UniProt P22314) | -0.16 | -0.119 | -0.128 | -0.0935
42 | TSNAX C257 (UniProt Q99598) | 0.0938 | 0.0652 | 0.0737 | 0.0852

(next part)

Row | Target | log2 mean competition ratio ([1]; 50 µM) | log2 mean competition ratio ([1]; 200 µM) | log2 mean competition ratio ([2]; 50 µM) | log2 mean competition ratio ([2]; 200 µM)
43 | UBE2Q1 C157 (UniProt Q7Z7E8) | – | – | -0.449 | -0.126
44 | TUBGCP6 C529 (UniProt Q96RT7) | 0.197 | 0.047 | -0.0721 | 0.0675
45 | TTF1 C708 (UniProt Q15361) | -0.323 | 0.143 | -0.363 | 0.387
46 | UBE2E1 C67 (UniProt P51965) | – | – | -0.0243 | -0.175
47 | TTL C294 (UniProt Q8NG68) | – | – | 0.0495 | -0.0374
48 | TRRAP C3347 (UniProt Q9Y4A5) | – | – | 0.321 | 0.153
49 | TUBA1B C347 (UniProt P68363) | – | – | 0.62 | 0.0886
50 | UBE4A C79 (UniProt Q14139) | – | – | 0.0216 | -0.174
51 | U2AF2 C464 | – | – | 0.0374 | -0.208
52 | TXLNG C101 (UniProt Q9NUQ3) | – | – | 0.0851 | 0.0316
53 | UBA2 C30 | – | – | -0.305 | 0.163
54 | TSFM C71 (UniProt P43897) | – | – | -0.16 | -0.0311
55 | UBE2O C1288 | – | – | 0.0539 | -0.186
56 | TUBGCP2 C737 (UniProt Q9BSJ2) | – | – | -0.345 | 0.0399
57 | UBE2O C375 | – | – | -0.0243 | 0.0313
58 | TTC30A C174 | – | – | 0.0822 | -0.0991
59 | TTC7B C21 (UniProt Q86TV6) | – | – | -0.165 | 0.12
60 | TXNRD3 C76 (UniProt Q86VQ6) | – | – | 0.633 | 0.151
61 | UBE3A C108 (UniProt Q05086) | – | – | -0.117 | -0.0275
